Data: PubChem BioAssay AID248 (DTP/NCI, 2004)
The list is a part of this screen's results and no random one: it is rich in T/C values a quarter to a half above the control, in often repeated tests (any T/C) and in doses without a T/C. Other doses and runs of a compound stand elsewhere. T/C gives the treated animals as a percentage of the vehicle group. Some entries give survivors of the animals treated and no T/C: the source holds a T/C of zero for them, seemingly a mark for toxic or unscored doses. Some doses without a T/C left all or most animals alive at the check, yet need not have been tolerated: survival well below the control is almost never listed, so the zero probably covers shortened survival too. Counts of survivors are from the toxicity check (mostly the fifth day) where no day follows; animals may have died later. Schedules are NCI's codes, taken here to give the interval after Q, in days (D) or hours (H), and the number of doses after X. Some entries hold several experiments; the results are listed from low to high.

Test system: L1210 leukemia ip in BDF1 mice, survival T/C
Experiment: NCI In Vivo Anticancer Drug Screen. Data for tumor model L1210 Leukemia (intraperitoneal) in B6D2F1 (BDF1) mice
Conditions: T/C endpoint: mean survival time, higher T/C = longer survival
[1] = dose: 50.0 mg/kg/injection, schedule: Q01DX009 (ip), vehicle: Klucel (hydroxypropylcellulose) (HPC)
[2] = dose: 100.0 mg/kg/injection, schedule: Q01DX009 (ip), vehicle: Klucel (hydroxypropylcellulose) (HPC)
[3] = dose: 200.0 mg/kg/injection, schedule: Q01DX009 (ip), vehicle: Klucel (hydroxypropylcellulose) (HPC)
[4] = dose: 400.0 mg/kg/injection, schedule: Q01DX009 (ip), vehicle: Klucel (hydroxypropylcellulose) (HPC)

Compound: C[N+](C)(C)c1ccc(/C(C#N)=N/O)cc1
- survivor count [1]: 5 of 6
- survivor count [2]: 0 of 6
- survivor count [3]: 0 of 6
- survivor count [4]: 0 of 6

Compound: CN(c1ccccc1)S(=O)(=O)c1ccc(NC(=O)CBr)cc1
- survivor count (dose: 150.0 mg/kg/injection, schedule: Q01DX001 (ip), vehicle: Klucel (hydroxypropylcellulose) (HPC)): 0 of 6

Compound: COC(=O)C1CCCN(C)C1c1c[nH]c2ccccc12 (centres undefined)
- survivor count (dose: 300.0 mg/kg/injection, schedule: Q01DX001 (ip), vehicle: other): 0 of 6

Compound: O=S(=O)(c1ccc(NC(=S)Oc2ccccc2)cc1)c1ccc(NC(=S)Oc2ccccc2)cc1
- survivor count (dose: 400.0 mg/kg/injection, schedule: Q01DX001 (ip), vehicle: saline): 1 of 4

Compound: CCCC1OC(=O)C(C)O1 (centres undefined)
- survivor count [4]: 5 of 6

Compound: COc1cccc(N2C(=O)C=CC2=O)c1
- survivor count (dose: 6.25 mg/kg/injection, schedule: Q01DX009 (ip), vehicle: Klucel (hydroxypropylcellulose) (HPC)): 2 of 6 and 3 of 6
- survivor count (dose: 12.5 mg/kg/injection, schedule: Q01DX009 (ip), vehicle: Klucel (hydroxypropylcellulose) (HPC)): 1 of 6
- survivor count (dose: 25.0 mg/kg/injection, schedule: Q01DX009 (ip), vehicle: Klucel (hydroxypropylcellulose) (HPC)): 0 of 6
- survivor count [1]: 0 of 6
- survivor count [2]: 0 of 6
- survivor count [3]: 0 of 6
- survivor count [4]: 0 of 6

Compound: C=Cc1ccc(Oc2ccccc2)cc1
- survivor count (dose: 200.0 mg/kg/injection, schedule: Q01DX009 (ip), vehicle: saline with Tween-80): 4 of 6

Compound: O=C(O)c1c(Cl)nsc1Cl
- survivor count [4]: 0 of 6

Compound: CC[CH2][Sn]([CH2]CC)[CH2]CC.CC[CH2][Sn]([CH2]CC)[CH2]CC
- survivor count (dose: 50.0 mg/kg/injection, schedule: Q01DX009 (sc), vehicle: olive oil, sesame oil, peanut oil): 1 of 3
- survivor count (dose: 100.0 mg/kg/injection, schedule: Q04DX002 (sc), vehicle: olive oil, sesame oil, peanut oil): 1 of 3
- survivor count (dose: 200.0 mg/kg/injection, schedule: Q04DX002 (sc), vehicle: olive oil, sesame oil, peanut oil): 2 of 3
- survivor count (dose: 400.0 mg/kg/injection, schedule: Q04DX002 (sc), vehicle: olive oil, sesame oil, peanut oil): 0 of 3

Compound: O=Nc1ccc(O)c(Cl)c1
- survivor count (dose: 400.0 mg/kg/injection, schedule: Q01DX001 (ip), vehicle: Klucel (hydroxypropylcellulose) (HPC)): 3 of 3

Compound: CCCCCCCC[N+](CC)(CC)CCOC(=O)C(C1CCCC1)C1CCCC1
- survivor count (dose: 5.0 mg/kg/injection, schedule: Q01DX009 (ip), vehicle: saline): 2 of 6
- survivor count (dose: 10.0 mg/kg/injection, schedule: Q04DX003 (ip), vehicle: saline): 5 of 6
